# Reference: patent publication US20070134261A1, “Effectors of innate immunity” (priority 2001, published 2007)
# Several values for one entry are separate records, joined by “and”; a condition that tells them apart may be missing. Equal values may be shown once. Not every detail of the peptide structures is certain; ends, links or a residue may be inferred. No end group written: not given here.
# System: human A549 epithelial cells
# Test: Resgen Human cDNA arrays (PRHU03-S3) of A549 cells treated with peptide (Tables 21-26)
# Conditions: 50 μg/ml, 4 h
sequence,measurement,setting,value
RPRYPWWPWWPYRPRK [SEQ ID NO: 19],"Ratio Peptide:Unstimulated, catenin (cadherin-associated protein), delta 1",AA025276,2.4
same,"Ratio Peptide:Unstimulated, integrin, beta 3",AA037229,1.8
same,"Ratio Peptide:Unstimulated, disintegrin and metalloproteinase domain 10",AA043347,3.3
same,"Ratio Peptide:Unstimulated, MAP kinase kinase kinase kinase 3",AA043537,1.03
same,"Ratio Peptide:Unstimulated, protein tyrosine phosphatase, receptor type, J",AA045326,1.6
same,"Ratio Peptide:Unstimulated, MAP kinase kinase kinase 12",AA053674,0.58
same,"Ratio Peptide:Unstimulated, integrin, alpha 7",AA055979,0.22
same,"Ratio Peptide:Unstimulated, leukocyte immunoglobulin-like receptor, subfamily B (with TM and ITIM domains), member 4",AA076350,0.19
same,"Ratio Peptide:Unstimulated, phospholipase A2 receptor 1",AA086038,1.9
same,"Ratio Peptide:Unstimulated, IL-8",AA102526,1.8
same,"Ratio Peptide:Unstimulated, cadherin 11, type 2, OB-cadherin (osteoblast)",AA136983,0.30
same,"Ratio Peptide:Unstimulated, TNF R superfamily, member 1B","AA150416, listed as ID 19",15 and 14.93
same,"Ratio Peptide:Unstimulated, MAP kinase 9",AA157286,0.16
same,"Ratio Peptide:Unstimulated, macrophage stimulating 1 R",AA173454,0.4
same,"Ratio Peptide:Unstimulated, killer cell lectin-like receptor subfamily C, member 2",AA190627,4.1
same,"Ratio Peptide:Unstimulated, TNF R superfamily, member 11b","AA194983, listed as ID 19",0.8 and 0.78
same,"Ratio Peptide:Unstimulated, disintegrin and metalloproteinase domain 8",AA279188,2.2
same,"Ratio Peptide:Unstimulated, BCL2-interacting killer (apoptosis-inducing)",AA291323,5.2
same,"Ratio Peptide:Unstimulated, disintegrin-like and metalloprotease with thrombosondin type 1 motif, 3",AA398492,0.47
same,"Ratio Peptide:Unstimulated, MAP kinase kinase kinase 4",AA402447,1.59
same,"Ratio Peptide:Unstimulated, prostaglandin E receptor 3 (subtype EP3)",AA406362,3.8
same,"Ratio Peptide:Unstimulated, MAP kinase kinase kinase kinase 4",AA417711,0.29
same,"Ratio Peptide:Unstimulated, MAP kinase 8 interacting protein 2",AA418293,0.47
same,"Ratio Peptide:Unstimulated, integrin, alpha 3 (antigen CD49C, alpha 3 subunit of VLA-3 receptor)",AA424695,1.9
same,"Ratio Peptide:Unstimulated, cadherin 3, type 1, P-cadherin (placental)",AA425217,0.10
same,"Ratio Peptide:Unstimulated, integrin, alpha E",AA425451,28
same,"Ratio Peptide:Unstimulated, formyl peptide receptor 1",AA425767,0.4
same,"Ratio Peptide:Unstimulated, MAP kinase kinase 2",AA425826,0.02
same,"Ratio Peptide:Unstimulated, cytokine inducible SH2-containing protein",AA427521,39
same,"Ratio Peptide:Unstimulated, integrin, beta 5",AA434397,1.90
same,"Ratio Peptide:Unstimulated, protein tyrosine phosphatase, non-receptor type 9",AA434420,0.9
same,"Ratio Peptide:Unstimulated, protein tyrosine phosphatase, non-receptor type 12",AA446259,0.8
same,"Ratio Peptide:Unstimulated, caspase 8, apoptosis-related cysteine protease",AA448468,0.6
same,"Ratio Peptide:Unstimulated, growth factor receptor-bound protein 2",AA449831,2.4
same,"Ratio Peptide:Unstimulated, endothelin receptor type A",AA450009,14
same,"Ratio Peptide:Unstimulated, Human proteinase activated R-2",AA454652,2.2
same,"Ratio Peptide:Unstimulated, IL-11 R alpha",AA454657,4.9
same,"Ratio Peptide:Unstimulated, CSF 3 R",AA458507,3.5
same,"Ratio Peptide:Unstimulated, G protein-coupled receptor 49",AA460530,19
same,"Ratio Peptide:Unstimulated, integrin, alpha 10",AA460959,1.33
same,"Ratio Peptide:Unstimulated, MAP kinase kinase kinase 7",AA460969,1.62
same,"Ratio Peptide:Unstimulated, NK cell R",AA463248,0.3
same,"Ratio Peptide:Unstimulated, integrin, alpha 2 (CD49B, alpha 2 subunit of VLA-2 receptor)",AA463257,3.6
same,"Ratio Peptide:Unstimulated, IL-1 receptor, type I",AA464526,1.19
same,"Ratio Peptide:Unstimulated, protein tyrosine phosphatase, receptor type, E",AA464542,0.56
same,"Ratio Peptide:Unstimulated, protein tyrosine phosphatase, receptor-type, Z polypeptide 1",AA476461,0.72
same,"Ratio Peptide:Unstimulated, intercellular adhesion molecule 3",AA479188,2.04
same,"Ratio Peptide:Unstimulated, IL-18 receptor 1",AA482489,0.92
same,"Ratio Peptide:Unstimulated, vitamin D R",AA485226,1.1
same,"Ratio Peptide:Unstimulated, integrin, beta 4",AA485668,4.9
same,"Ratio Peptide:Unstimulated, IL-10 R beta","AA486393, listed as ID 19",1.9 and 1.88
same,"Ratio Peptide:Unstimulated, calcium and integrin binding protein",AA487575,9.7
same,"Ratio Peptide:Unstimulated, G protein-coupled receptor kinase 7",AA488413,0.91
same,"Ratio Peptide:Unstimulated, TRAF and TNF receptor-associated protein",AA488650,0.67
same,"Ratio Peptide:Unstimulated, cytokine-inducible kinase",AA489234,0.37
same,"Ratio Peptide:Unstimulated, small inducible cytokine subfamily A (Cys—Cys), member 18",AA495985,0.44
same,"Ratio Peptide:Unstimulated, programmed cell death 8 (apoptosis-inducing factor)",AA496348,1.94
same,"Ratio Peptide:Unstimulated, melanoma adhesion molecule",AA497002,43
same,"Ratio Peptide:Unstimulated, TNF receptor-associated factor 3",AA504259,0.72
same,"Ratio Peptide:Unstimulated, apoptosis-related protein PNAS-1",AA521316,2.3
same,"Ratio Peptide:Unstimulated, complement component receptor 2",AA521362,2.6
same,"Ratio Peptide:Unstimulated, laminin R 1 (67 kD, ribosomal protein SA)",AA629897,4.4
same,"Ratio Peptide:Unstimulated, protein tyrosine phosphatase, receptor type, U",AA644448,5.6
same,"Ratio Peptide:Unstimulated, integrin, beta 3",AA666269,1.8
same,"Ratio Peptide:Unstimulated, regulator of G-protein signaling 5",AA668470,0.68
same,"Ratio Peptide:Unstimulated, small inducible cytokine A3 (homologous to mouse Mip-1a)",AA677522,0.35
same,"Ratio Peptide:Unstimulated, protein tyrosine phosphatase, non-receptor type 13",AA679180,3.6
same,"Ratio Peptide:Unstimulated, protein tyrosine phosphatase, non-receptor type 3",AA682684,0.5
same,"Ratio Peptide:Unstimulated, v-SNARE R",AA704511,1.8
same,"Ratio Peptide:Unstimulated, adenosine A3 R",AA863086,1.0
same,"Ratio Peptide:Unstimulated, integrin, alpha 9",AA865557,0.01
same,"Ratio Peptide:Unstimulated, small inducible cytokine subfamily B (Cys-X-Cys), member 10",AA878880,0.29
same,"Ratio Peptide:Unstimulated, interleukin enhancer binding factor 2",AA894687,0.8
same,"Ratio Peptide:Unstimulated, IL-2 receptor, alpha",AA903183,0.58
same,"Ratio Peptide:Unstimulated, small inducible cytokine subfamily A (Cys—Cys), member 23",AA916836,1.53
same,"Ratio Peptide:Unstimulated, CD2","AA927710, listed as ID 19",1.2 and 1.15
same,"Ratio Peptide:Unstimulated, prostaglandin E receptor 1 (subtype EP1)",AA972293,6.0
same,"Ratio Peptide:Unstimulated, TNF R superfamily, member 17",AA987627,0.55
same,"Ratio Peptide:Unstimulated, protein tyrosine phosphatase, non-receptor type 11",AA995560,2.2
same,"Ratio Peptide:Unstimulated, integrin beta 4 binding protein",AI017019,6.6
same,"Ratio Peptide:Unstimulated, orphan seven-transmembrane receptor, chemokine related",AI131555,0.11
same,"Ratio Peptide:Unstimulated, IL-1 R antagonist homolog 1","AI167887, listed as ID 19",870 and 869.57
same,"Ratio Peptide:Unstimulated, MAP kinase 8 interacting protein 2",AI202738,0.24
same,"Ratio Peptide:Unstimulated, disintegrin and metalloproteinase domain 18",AI205675,0.57
same,"Ratio Peptide:Unstimulated, regulator of G-protein signaling 20",AI264190,82
same,"Ratio Peptide:Unstimulated, small inducible cytokine subfamily A (Cys—Cys), member 20",AI285199,0.45
